Measured values published in patent publication US20120207721A1.
These are yes or no findings as the source states them, for the method shown. In cells and extracts the contact can be indirect. Binding can be weak; no strength is given.

Legend:
[1] = biological target: IRA (Homo sapiens (Human)); assay: co-immunoprecipitation with anti-IR from DSP-crosslinked transfected CHO cells, Western blot with anti-SorCS1-leu
[2] = biological target: IRB (Homo sapiens (Human)); assay: as above

Binder	binding [1]	binding [2]
murine SorCS1 splice variant SorCS1-b (receptor) SGTEPEKIEPGEGASRSRRDMLKDGGQQGLGTGARDPGKATRFRMEELRLTSTTFALTGDSAHNQAMVHWSGHNSSVILILTKLYDYNLGSITESSLWRSTDYGTTYEKLNDKVGLKTILSYLYVCPTNKCKIMLLTDPEIESSLLISSDEGATYQKYRLNFYLQSLLFHPKQEDWILAYSQDQKLYSSAEFGRRWQLIQESVVPNRFYWSVMGSSKEPDLVHLEARTVDGHSIYLTCRMQNCTEANRNKPFPGYIDPDSLIVQDDYVFVQLTSGGRPHYYVSYRRSPFAQMKLPKYALPKDMHVISTDENQVFAAVQEWNQNDTYNLYISDTRGVYFTLALENVRSSRGPEGNVMIDLYEVAGIKGMFLANKKIDNQVKTFITYNKGRDWRLLQAPDADLRGDPVHCLLPYCSLHLHLKVSENPYTSGIIASRDTAPSIIVASGNIGSELSDSDISMFVSSDAGNTWRQIFEEEHSILYLDQGGVLVAMKHTSLPIRHLWLSFDEGRSWSKYSFTSIPLFVDGVLGEPGEETLIMTVFGHFSHRSEWQLVKVDYKSIFDRRCAEEDYRPWQLHSQGEACIMGAKRIYKKRKSERKCMQKYAGAMESEPCVCTEADFDCDYGYERHSNGQCLPAFWFNPSSLSKDCSLGQSYLNSAGYRKVVSNNCTDGVREQYTAKPQKCPGKAPRGLRIVTADGKLTAEQGHNVTLMVQLEEGDVQRTLIQVDFGDGIAVSYVNLSSMEDGIKHVYQNVGIFRVTVQVDNSLGSDSAVLYLHVTCPLEHVHLSLPFVTTKNKEVNATAVLWPSQVGTLTYVWWYGNNTEPLITLEGSISFKFTSEGMNTITVQVSAGNAILQDTKTIAVYEEFRSLRLAFSPNLDDYNPDIPEWRRDISRVIKKSLVEATGIPSQHILVAVLPGLPTAAELFVLPYQDGTRENKRSPEDLEQISEVLIHKLNQNLVHFELKPGVQVLVHAAHLTAAPLVDLTPTHSGSAMLMLLSVVFVGLAVFVIYKFKRRVALPSPPSPSAQPGDSSLRLQRPRPATPPSSPKRGSAGAQFAI	binds	binds
murine SorCS1 splice variant SorCS1-c (receptor) SGTEPEKIEPGEGASRSRRDMLKDGGQQGLGTGARDPGKATRFRMEELRLTSTTFALTGDSAHNQAMVHWSGHNSSVILILTKLYDYNLGSITESSLWRSTDYGTTYEKLNDKVGLKTILSYLYVCPTNKCKIMLLTDPEIESSLLISSDEGATYQKYRLNFYLQSLLFHPKQEDWILAYSQDQKLYSSAEFGRRWQLIQESVVPNRFYWSVMGSSKEPDLVHLEARTVDGHSIYLTCRMQNCTEANRNKPFPGYIDPDSLIVQDDYVFVQLTSGGRPHYYVSYRRSPFAQMKLPKYALPKDMHVISTDENQVFAAVQEWNQNDTYNLYISDTRGVYFTLALENVRSSRGPEGNVMIDLYEVAGIKGMFLANKKIDNQVKTFITYNKGRDWRLLQAPDADLRGDPVHCLLPYCSLHLHLKVSENPYTSGIIASRDTAPSIIVASGNIGSELSDSDISMFVSSDAGNTWRQIFEEEHSILYLDQGGVLVAMKHTSLPIRHLWLSFDEGRSWSKYSFTSIPLFVDGVLGEPGEETLIMTVFGHFSHRSEWQLVKVDYKSIFDRRCAEEDYRPWQLHSQGEACIMGAKRIYKKRKSERKCMQKYAGAMESEPCVCTEADFDCDYGYERHSNGQCLPAFWFNPSSLSKDCSLGQSYLNSAGYRKVVSNNCTDGVREQYTAKPQKCPGKAPRGLRIVTADGKLTAEQGHNVTLMVQLEEGDVQRTLIQVDFGDGIAVSYVNLSSMEDGIKHVYQNVGIFRVTVQVDNSLGSDSAVLYLHVTCPLEHVHLSLPFVTTKNKEVNATAVLWPSQVGTLTYVWWYGNNTEPLITLEGSISFKFTSEGMNTITVQVSAGNAILQDTKTIAVYEEFRSLRLAFSPNLDDYNPDIPEWRRDISRVIKKSLVEATGIPSQHILVAVLPGLPTAAELFVLPYQDGTRENKRSPEDLEQISEVLIHKLNQNLVHFELKPGVQVLVHAAHLTAAPLVDLTPTHSGSAMLMLLSVVFVGLAVFVIYKFKRKIPGINVYAQMQNEKEQELINPVSHSESRPSVPHPDLRRPGQLVDEKVESQLLGK	binds	binds
